Source: PubChem BioAssay AID1259300 (Sanger Institute, 2017)
Purpose: 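siRNA screen of kinases and common colorectal cancer mutant genes, alone or with drugs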 (primary screen). System: HCT15 colorectal cancer cells. Reagents: siRNA pool against human genes. Treatment: anchor drug or DMSO vehicle added 24 h after seeding: BYL719 1 µM, cetuximab 5 µg/ml, trametinib 10 nM; drug doses chosen to barely affect viability alone. Measured: 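Cell viability after knock-down, as fraction of non-targeting pool wells averaged over replicates, plus robust z-score for knock-down alone; synergy score per drug (BYL719 1 µM, cetuximab 5 µg/ml, trametinib 10 nM)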. Direction: viability z-score, siRNA alone: higher = more viable cells after knock-down; viability vs non-targeting, siRNA alone: higher = more viable cells; synergy score with BYL719 and synergy score with cetuximab and synergy score with trametinib: higher = stronger synergy of knock-down with drug. Rule for the call: 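Called active (essential) if viability z-score with knock-down alone falls below -3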. Calls: active = essential: knock-down alone lowers viability (z below -3); inactive = no strong viability loss with knock-down alone.
The deposit covers 794 reagents; shown is a part drawn at random. Of all reagents, 18 (2.3%) were called active. 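Calls rest on knock-down alone, not drug synergy; depositor treated synergy scores above 0.15 as synergistic; drug doses alone had little viability effect.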 Unmarked entries are inactive. Viability is capped at 1. The record does not give: the amount of reagent, the time to read-out.

| gene symbol | viability z-score, siRNA alone | viability vs non-targeting, siRNA alone | synergy score with BYL719 | synergy score with cetuximab | synergy score with trametinib |
| --- | --- | --- | --- | --- | --- |
| CPNE3 | -0.469 | 0.92 | 0.0935 | -0.0795 | -0.128 |
| PRKD3 | 0.625 | 1 | 0.335 | 0.112 | 0.129 |
| ARAF | 0.179 | 0.968 | -0.0155 | -0.0324 | -0.0678 |
| ADCK5 | 0.445 | 0.987 | 0.0953 | 0.0828 | 0.0715 |
| PIK3R3 | 0.625 | 1 | -0.0492 | 0 | -0.0984 |
| SRC | 0.625 | 1 | 0.231 | 0.043 | -0.0565 |
| TBK1 | -0.0794 | 0.949 | 0.204 | 0.122 | -0.0178 |
| STK10 | -0.0353 | 0.952 | 0.0399 | -0.0214 | 0.0236 |
| PSKH2 | 0.625 | 1 | 0.213 | 0.127 | -0.0984 |
| KCNH2 | 0.625 | 1 | 0.23 | 0.0344 | 0.0217 |
| MAP2K3 | -0.212 | 0.939 | 0.238 | 0.156 | 0.0971 |
| CEP290 | -0.0678 | 0.95 | 0.0848 | 0.108 | -0.11 |
| RSKR | 0.609 | 0.999 | 0.00226 | 0.0139 | 0.0404 |
| MAP2K7 | 0.625 | 1 | 0.32 | 0.148 | 0.091 |
| ITPKA | 0.625 | 1 | 0.11 | 0.0778 | 0.0289 |
| MAPKAPK2 | 0.625 | 1 | 0.261 | 0.103 | -0.0984 |
| TAOK2 | 0.625 | 1 | -0.085 | 0 | -0.0984 |
| CSNK1G2 | -0.325 | 0.931 | 0.135 | -0.0509 | -0.0417 |
| ACVR1 | 0.625 | 1 | 0.239 | 0.248 | 0.0757 |
| PRKAR1A | 0.625 | 1 | 0.1 | 0.0389 | 0.0615 |

Continued (3 carried over from the part before).
| gene symbol | viability z-score, siRNA alone | viability vs non-targeting, siRNA alone | synergy score with BYL719 | synergy score with cetuximab | synergy score with trametinib |
| --- | --- | --- | --- | --- | --- |
| CSNK1G2 | -0.325 | 0.931 | 0.135 | -0.0509 | -0.0417 |
| ACVR1 | 0.625 | 1 | 0.239 | 0.248 | 0.0757 |
| PRKAR1A | 0.625 | 1 | 0.1 | 0.0389 | 0.0615 |
| DCLK2 | -0.574 | 0.913 | 0.0471 | 0.136 | -0.143 |
| CDK11A | -4.13 (active) | 0.654 | -0.0163 | -0.0582 | 0.00276 |
| SYK | 0.0696 | 0.96 | 0.18 | -0.026 | 0.084 |
| CHKB | -0.73 | 0.901 | 0.0971 | -0.0925 | -0.0544 |
| AGK | -0.0948 | 0.948 | 0.13 | -0.0128 | -0.000616 |
| PRKCG | 0.625 | 1 | 0.298 | 0.159 | -0.0344 |
| BRD4 | -2.05 | 0.805 | 0.169 | 0.119 | 0.0167 |
| INSRR | 0.625 | 1 | 0.0228 | 0 | -0.0984 |
| BPTF | 0.232 | 0.971 | 0.172 | 0.079 | -0.0171 |
| LTK | 0.183 | 0.968 | 0.0799 | -0.00568 | -0.0742 |
| PIK3R4 | -0.539 | 0.915 | 0.162 | 0.131 | -0.175 |
| PRKAG3 | -3.85 (active) | 0.674 | 0.0082 | -0.0658 | -0.106 |
| THNSL1 | 0.625 | 1 | 0.0277 | 0.15 | -0.0291 |
| ITPK1 | 0.209 | 0.97 | 0.133 | 0.083 | -0.0975 |
